According to the supplement of paper PMC10331698:
± gives the standard deviation of the averaged measurements. Most values lie at the level of the controls, where differences are scatter.

What was measured:
Test in all cases: level (log10 ratio to DMSO vehicle control); higher = higher biomarker level / cell amount than vehicle control
[1] = compound: C=C(C)C(=O)OCC(F)(F)C(F)(F)C(F)(F)F [2,2,3,3,4,4,4-Heptafluorobutyl methacrylate]; settings: 2200 nM; in DMSO
Method: (§1)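 BioMAP Diversity Plus panel of 12 human primary cell co-culture systems (3C, 4H, LPS, SAg, BT, BF4T, BE3C, CASM3C, HDF3CGF, KF3CT, MyoF, Mphg). Compounds were added 1 h before stimulation and left for 24 h (MyoF 48 h; BT 72 h for soluble read-outs or 6 d for IgG). Biomarkers were read by ELISA, cytotoxicity by SRB, PBMC viability and proliferation by Alamar Blue. Each well value was divided by the mean of 8 DMSO control wells on the same plate and log10 transformed; duplicate blinded samples were tested at 4 concentrations.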

[2] = compound: C=CC(=O)OCC(F)(F)C(F)(F)C(F)(F)C(F)(F)COC(=O)C=C [1H,1H,6H,6H-Perfluorohexane-1,6-diol diacrylate]; settings: 2200 nM; in DMSO
Method: as §1

[3] = compound: FC(F)(F)C(F)(F)C(F)(F)C(F)(F)C(F)(F)C(F)(F)C(F)(F)CCI [1-Iodo-1H,1H,2H,2H-perfluorononane]; settings: in DMSO
Method: as §1

[4] = compound: FC(F)(F)C(F)(F)C(F)(F)C(F)(F)C(F)(F)C(F)(F)C(F)(F)I [1-Iodopentadecafluoroheptane]; settings: in DMSO
Method: as §1

[5] = compound: FC(F)C(F)(F)COCC1CO1 [((2,2,3,3-Tetrafluoropropoxy)methyl)oxirane]; settings: 2200 nM; in DMSO
Method: as §1

Perfluorooctanamide = compound: NC(=O)C(F)(F)C(F)(F)C(F)(F)C(F)(F)C(F)(F)C(F)(F)C(F)(F)F [Perfluorooctanamide]; settings: 2200 nM; in DMSO
Method: as §1

Perfluoroundecanoic acid = compound: O=C(O)C(F)(F)C(F)(F)C(F)(F)C(F)(F)C(F)(F)C(F)(F)C(F)(F)C(F)(F)C(F)(F)C(F)(F)F [Perfluoroundecanoic acid]; settings: in DMSO
Method: as §1

[6] = compound: O=C(O)C(F)(F)C(F)(F)C(F)(F)C(F)(F)C(F)(F)C(F)(F)C(F)(F)C(F)F [9-H-Perfluorononanoic acid]; settings: 2200 nM; in DMSO
Method: as §1

Perfluorobutanoic acid = compound: O=C(O)C(F)(F)C(F)(F)C(F)(F)F [Perfluorobutanoic acid]; settings: 2200 nM; in DMSO
Method: as §1

Perfluoropropanoic acid = compound: O=C(O)C(F)(F)C(F)(F)F [Perfluoropropanoic acid]; settings: 2200 nM; in DMSO
Method: as §1

[7] = compound: O=C(O)C(F)(F)C(F)(F)OC(F)(F)F [Perfluoro-3-methoxypropanoic acid]; settings: 2200 nM; in DMSO
Method: as §1

[8] = compound: O=C(O)C(F)(F)OC(F)(F)C(F)(F)OC(F)(F)C(=O)O [Perfluoro-3,6-dioxaoctane-1,8-dioic acid]; settings: 2200 nM; in DMSO
Method: as §1

[9] = compound: O=C(O)C(F)(F)OC(F)(F)C(F)(F)OC(F)(F)C(F)(F)C(F)(F)C(F)(F)F [Perfluoro-3,6-dioxadecanoic acid]; settings: 2200 nM; in DMSO
Method: as §1

[10] = compound: O=C(O)C=CC(F)(C(F)(F)F)C(F)(F)F [3-(Perfluoroisopropyl)-2-propenoic acid]; settings: in DMSO
Method: as §1

[11] = compound: O=P(O)(O)CCC(F)(F)C(F)(F)C(F)(F)C(F)(F)C(F)(F)C(F)(F)C(F)(F)C(F)(F)F [((Perfluorooctyl)ethyl)phosphonic acid]; settings: 2200 nM; in DMSO
Method: as §1

[12] = compound: O=S(=O)(Cl)C(F)(F)C(F)(F)C(F)(F)C(F)(F)C(F)(F)C(F)(F)C(F)(F)C(F)(F)F [Perfluoro-1-octanesulfonyl chloride]; settings: 2200 nM; in DMSO
Method: as §1

[13] = compound: OCC(F)(F)C(F)(F)C(F)(F)C(F)(F)C(F)(F)C(F)(F)C(F)(F)C(F)(F)C(F)(F)C(F)(F)C(F)(F)F [11:1 Fluorotelomer alcohol]; settings: in DMSO
Method: as §1

[14] = compound: OCCC(F)(F)C(F)(F)C(F)(F)C(F)(F)C(F)(F)C(F)(F)C(F)(F)C(F)(F)F [8:2 Fluorotelomer alcohol]; settings: 2200 nM; in DMSO
Method: as §1

Test System	level (log10) [1]	level (log10) [2]	level (log10) ([3]; 740 nM)	level (log10) ([3]; 2200 nM)	level (log10) ([3]; 6700 nM)	level (log10) ([3]; 20000 nM)	level (log10) ([4]; 740 nM)	level (log10) ([4]; 2200 nM)	level (log10) ([4]; 6700 nM)	level (log10) ([4]; 20000 nM)	level (log10) [5]	level (log10) (Perfluorooctanamide)	level (log10) (Perfluoroundecanoic acid; 740 nM)	level (log10) (Perfluoroundecanoic acid; 2200 nM)	level (log10) [6]	level (log10) (Perfluorobutanoic acid)	level (log10) (Perfluoropropanoic acid)	level (log10) [7]	level (log10) [8]	level (log10) [9]	level (log10) ([10]; 2200 nM)	level (log10) ([10]; 6700 nM)	level (log10) ([10]; 20000 nM)	level (log10) ([10]; 60000 nM)	level (log10) [11]	level (log10) [12]	level (log10) ([13]; 370 nM)	level (log10) ([13]; 1100 nM)	level (log10) ([13]; 3300 nM)	level (log10) ([13]; 10000 nM)	level (log10) [14]
CASM3C:CD141/Thrombomodulin	-0.009 ± 0.033	0.092 ± 0.0085	-0.008 ± 0.0099	0.0025 ± 0.018	0.0135 ± 0.0035	0.0065 ± 0.03	-0.025 ± 0.04	-0.06 ± 0.0028	-0.0595 ± 0.021	-0.0445 ± 0.021	-0.0065 ± 0.056	0.014 ± 0.013	-0.042 ± 0.065	-0.059 ± 0.072	-0.023 ± 0.0057	0.0145 ± 0.015	-0.038 ± 0.023	0.017 ± 0.051	0.01 ± 0.055	-0.0025 ± 0.049	0.0055 ± 0.032	-0.0215 ± 0.011	-0.001 ± 0.023	0.0075 ± 0.033	0.004 ± 0.057	0.001 ± 0.0099	0 ± 0.013	-0.0155 ± 0.012	-0.012 ± 0.025	-0.0155 ± 0.005	0.0125 ± 0.015
BF4T:Keratin 8/18	-0.021 ± 0.023	-0.014 ± 0.0085	-0.003 ± 0.071	-0.0125 ± 0.043	-0.016 ± 0.052	-0.0135 ± 0.0092	-0.0145 ± 0.05	-0.011 ± 0.021	-0.031 ± 0.021	-0.054 ± 0.0028	0.0095 ± 0.023	-0.0355 ± 0.043	0.0065 ± 0.022	0.008 ± 0.0028	0.0125 ± 0.04	0.0115 ± 0.00071	-0.009 ± 0.021	0.014 ± 0.024	-0.0055 ± 0.00071	0.01 ± 0.031	0.0035 ± 0.019	-0.018 ± 0.028	-0.0135 ± 0.0021	-0.0035 ± 0.044	0.0015 ± 0.012	0.0055 ± 0.023	-0.001 ± 0.033	0.0025 ± 0.026	-0.009 ± 0.03	-0.0075 ± 0.025	0.0055 ± 0.019
BF4T:CCL26/Eotaxin-3	0.034 ± 0.075	-0.003 ± 0.023	0.0315 ± 0.011	0.026 ± 0.0071	-0.0075 ± 0.0021	-0.061 ± 0.0099	0.025 ± 0.033	-0.0135 ± 0.018	-0.04 ± 0.048	-0.0305 ± 0.042	0.046 ± 0.024	-0.056 ± 0.16	-0.092 ± 0.031	-0.127 ± 0.021	-0.022 ± 0.034	0.0115 ± 0.052	0.0225 ± 0.019	-0.0235 ± 0.067	-0.0255 ± 0.0092	-0.012 ± 0.072	0.0335 ± 0.098	-0.0085 ± 0.057	-0.005 ± 0.013	0.0165 ± 0.029	0.0195 ± 0.081	-0.027 ± 0.041	0.011 ± 0.013	-0.012 ± 0.0042	-0.003 ± 0.011	-0.0015 ± 0.0078	-0.009 ± 0.12
MyoF:bFGF	-0.0075 ± 0.0078	-0.008 ± 0.0028	0.0015 ± 0.012	0.005 ± 0.0099	0.01 ± 0.0014	0.021 ± 0.017	0.0145 ± 0.0092	0.006 ± 0.0028	0.0165 ± 0.016	-0.0075 ± 0.015	0.0175 ± 0.013	0.0015 ± 0.00071	0.0035 ± 0.013	0.005 ± 0.034	-0.0035 ± 0.016	0.0045 ± 0.018	-0.0135 ± 0.012	0.012 ± 0.027	0.001 ± 0.03	0.0095 ± 0.0078	0.024 ± 0.033	0 ± 0.0028	0.006 ± 0.027	0.006 ± 0.017	-0.008 ± 0.0057	-0.0195 ± 0.005	-0.005 ± 0.0014	0.002 ± 0.0071	0.008 ± 0.014	0.004 ± 0.021	-0.0025 ± 0.016
